Structures can show the parent of a compound that is named as a salt. Some of the results follow. Single values are uncertain here, since repeats match poorly.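 In a drug-repurposing library screen, luminescence reads luciferase driven by eight TEAD-binding elements, stably integrated into human kidney-derived cells. Compounds scoring over five robust Z scores above the plate mean are called hits.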

In the supplement of paper PMC10735217 one finds TEAD-luciferase reporter activity data, which are given here for 26 molecules.

The test system of this experiment is HEK293A TEAD-LUC reporter. In words: TEAD-luciferase reporter activity (YAP activation), robust Z score vs plate; higher = stronger YAP/TEAD activation. The following applies: 24 h. In general terms: In a reporter assay the amount or activity of a reporter protein is the signal.

In the case of `COC(=O)[C@H]1[C@H]2C[C@@H]3c4[nH]c5cc(OC)ccc5c4CCN3C[C@H]2C[C@H](OC)[C@@H]1OC` [Metoserpate Hydrochloride], the TEAD-luciferase reporter activity was inactive: -0.342 (compound concentration: 200 nM), inactive: 0.668 (compound concentration: 2 uM) and inactive: -1.49 (compound concentration: 10 uM).
Consider `O=C(c1ccccc1)N1CCC(n2c(=O)[nH]c3ccccc32)CC1`, for which the TEAD-luciferase reporter activity reads like this: (compound concentration: 200 nM) inactive: -1.89; (compound concentration: 10 uM) inactive: 0.89.
For the molecule `CN(C/C=C/C#CC(C)(C)C)Cc1cccc2c(F)cc(F)cc12`, the TEAD-luciferase reporter activity was inactive: 0.599 (compound concentration: 200 nM), inactive: -0.207 (compound concentration: 2 uM) and inactive: -0.267 (compound concentration: 10 uM).
As for `O=Cc1c(O)cccc1OCCCCC(=O)O` [velaresol], the TEAD-luciferase reporter activity (compound concentration: 200 nM) was inactive: -0.371, the TEAD-luciferase reporter activity (compound concentration: 2 uM) is inactive: -0.341 and the TEAD-luciferase reporter activity (compound concentration: 10 uM) is inactive: 0.0635.
In the same order, the values of `CC(=O)N[C@@H]1[C@@H](OC(C)C(=O)NC(C)C(=O)NC(CCC(N)=O)C(=O)O)[C@H](O)[C@@H](CO)O[C@@H]1O` (some centres undefined) are inactive: -0.415, inactive: -0.676 and inactive: 0.753.
In the same order, the values of `CC(CCc1ccc(O)cc1)NCCc1ccc(O)c(O)c1` (centres undefined) [dobutamine] are inactive: -0.797, inactive: -1.03 and inactive: 3.4.
In the same order, the values of `Cc1cc(C)nc(OC(C(=O)O)C(OCCc2ccccc2)(c2ccccc2)c2ccccc2)n1` (centres undefined) are inactive: -1.97, inactive: -1.51 and inactive: 2.41.
For the molecule `COc1ccc(/C(C)=N/OC(N)=O)cc1OC1CCCC1`, the TEAD-luciferase reporter activity is inactive: -0.844 (compound concentration: 200 nM), inactive: -0.401 (compound concentration: 2 uM) and inactive: 0.0658 (compound concentration: 10 uM).
In the same order, the values of `COc1nccc(-c2c(-c3ccc(F)cc3)ncn2C2CCC(O)CC2)n1` (centres undefined) are inactive: -0.602, inactive: -2.15 and inactive: 0.656.
For `CN(C)C(=O)n1cc(C(=O)c2ccn3c2CS[C@@H]3c2cccnc2)c2ccc(-c3ccc(F)cc3)cc21`, the TEAD-luciferase reporter activity reads like this: (compound concentration: 200 nM) inactive: -0.34; (compound concentration: 2 uM) inactive: -0.778; (compound concentration: 10 uM) inactive: 0.508.
In the same order, the values of `COc1cc(NC(=O)C2CC2)c(Cl)cc1C(=O)N[C@@H]1CCN(Cc2ccccc2)C1` are inactive: -1.17, inactive: -1.35 and inactive: 0.633.
`O=C([O-])c1ccccc1-c1c2cc(I)c(=O)c(I)c-2oc2c(I)c([O-])c(I)cc12`: the TEAD-luciferase reporter activity was inactive: -0.455 (compound concentration: 200 nM), inactive: -0.18 (compound concentration: 2 uM) and inactive: 2.22 (compound concentration: 10 uM).
As to `COc1ccc(CC(=O)N2Cc3ccccc3CC23CCCN(C(=O)CCCN)C3)cc1` (centres undefined), the TEAD-luciferase reporter activity is inactive: 0.805 (compound concentration: 200 nM) and inactive: 2.57 (compound concentration: 10 uM).
As for `O=C1N(Cc2ccc(C(F)(F)F)o2)c2ccccc2C12COc1cc3c(cc12)OCO3` (centres undefined) [Funapide], the TEAD-luciferase reporter activity reads like this: (compound concentration: 200 nM) inactive: -1.98; (compound concentration: 2 uM) inactive: -0.904; (compound concentration: 10 uM) inactive: 0.0961.
In the same order, the values of `CC1(C)S[C@@H]2[C@H](NC(=O)[C@H](N)c3ccccc3)C(=O)N2[C@H]1C(=O)OC1OC(=O)c2ccccc21` (some centres undefined) are inactive: 0.753, inactive: -0.477 and inactive: 1.79.
Take `CC(C)(C)NCC(O)COc1nsnc1N1CCOCC1` (centres undefined) [timolol, transdermal]: under “compound concentration: 2 uM”, the TEAD-luciferase reporter activity is inactive: -0.629.
Turning to `CC(C)(C)NCC(O)COc1nsnc1N1CCOCC1` (stereo not drawn) [S(-)-Timolol maleate], the TEAD-luciferase reporter activity is inactive: -2.6 (compound concentration: 200 nM) and inactive: -2.48 (compound concentration: 10 uM).
With `CCOCCn1c(CN2CCN(CCCCn3cccn3)CC2)nc2ccccc21`, the TEAD-luciferase reporter activity is, setting by setting: (compound concentration: 200 nM) inactive: -0.692; (compound concentration: 2 uM) inactive: -0.954; (compound concentration: 10 uM) inactive: -1.46.
In the same order, the values of `C[C@H]1[C@H](C)CC[C@]2(C(=O)O[C@@H]3O[C@H](CO[C@@H]4O[C@H](CO)[C@@H](O[C@@H]5O[C@@H](C)[C@H](O)[C@@H](O)[C@H]5O)[C@H](O)[C@H]4O)[C@@H](O)[C@H](O)[C@H]3O)CC[C@]3(C)C(=CC[C@@H]4[C@@]5(C)C[C@@H](O)[C@H](O)[C@@](C)(CO)[C@@H]5[C@H](O)C[C@]43C)[C@H]12` [Madecassoside] are inactive: -2.39, inactive: -0.467 and inactive: 2.3.
Turning to `COc1cc(O)c(C(=O)Nc2nc(C(=O)NCCN(C(C)C)C(C)C)cs2)cc1OC` [Acotiamide hydrochloride hydrate], the TEAD-luciferase reporter activity reads like this: (compound concentration: 200 nM) inactive: -1.56; (compound concentration: 2 uM) inactive: -1.03; (compound concentration: 10 uM) inactive: 0.0226.
Regarding `CC(Cc1ccccc1)(NC(=O)CN)c1ccccc1` (racemic) [Acetamide, 2-amino-N-(1-methyl-1,2-diphenylethyl)-, (+/-)-], the TEAD-luciferase reporter activity is, setting by setting: (compound concentration: 200 nM) inactive: 1.72; (compound concentration: 10 uM) inactive: 0.215.
With `O=C(O)C(=O)Cc1c[nH]c2ccccc12`, the TEAD-luciferase reporter activity is inactive: -0.529 (compound concentration: 200 nM), inactive: -0.739 (compound concentration: 2 uM) and inactive: -0.794 (compound concentration: 10 uM).
In the same order, the values of `Nc1ncnc2c1ncn2[C@@H]1O[C@H](CO)C[C@@H]1F` [Lodenosine] are inactive: -0.682, inactive: -0.162 and inactive: 1.07.
`CN(C)CCC=C1c2ccccc2C(C)(C)c2ccccc21` [Melitracen Hydrochloride]: the TEAD-luciferase reporter activity runs as follows: (compound concentration: 200 nM) inactive: -0.69; (compound concentration: 2 uM) inactive: -1.16; (compound concentration: 10 uM) inactive: 2.74.
Consider `COC(=O)N[C@H](C(=O)N1CCC[C@H]1c1ncc(-c2ccc(-c3ccc(-c4cnc([C@@H]5CCCN5C(=O)[C@@H](NC(=O)OC)C(C)C)[nH]4)cc3)cc2)[nH]1)C(C)C` [daclatasvir], for which, for the setting “compound concentration: 2 uM”, the TEAD-luciferase reporter activity was inactive: -3.66.
On to `COC(=O)N[C@H](C(=O)N1CCC[C@H]1c1ncc(-c2ccc(-c3ccc(-c4cnc([C@@H]5CCCN5C(=O)[C@@H](NC(=O)OC)C(C)C)[nH]4)cc3)cc2)[nH]1)C(C)C`, for which the TEAD-luciferase reporter activity is inactive: -1.01 (compound concentration: 200 nM) and inactive: 1.01 (compound concentration: 10 uM).
